Measurements taken from patent EP3708171A1, “TREATMENT OF VITAMIN D DEFICIENCY WITH 25(OH) VITAMIN D IN CRITICALLY ILL PATIENTS” (Bouillon, Roger, priority 2019, dated 2020).

Experiment: Randomized, placebo-controlled pilot study of IV 25OHD supplementation in critically ill (ICU) patients; serum vitamin D metabolites and DBP (Example 1)
Format: in vivo
Method: The study was performed in accordance with the 1964 Declaration of Helsinki and its later amendments. The protocol and consent forms were approved by the institutional review board of the University Hospitals Leuven (ML2462). The study was registered at www.controlled-trials.com (ISRCTN24385496). Patients with an anticipated stay in the intensive care unit (ICU) of more than 10 days were eligible for inclusion in the study. Patients younger than 18 years, those suffering from chronic bone or kidney disease, and those who were treated with glucocorticoids before ICU admission were excluded. […]
The effect of IV 25OHD supplementation on vitamin D status (25OHD, 1,25(OH)2D, 24,25(OH)2D) was studied. […] All patients were followed up and monitored for possible adverse events beyond the intervention period of 10 days until discharge or death. […]
Every day at 06.00 a.m., from ICU admission until ICU discharge or death, undiluted blood samples were taken through an arterial line that had been placed for clinical purposes. […] Concentrations of 25OHD, 1,25(OH)2D, and 24,25(OH)2D were measured in serum.
25OHD was measured by competitive binding assay; 1,25(OH)2D by radioimmunoassay (RIA), and DBP by radial immunodiffusion, as previously reported by Bouillon et al (J Clin Invest 1981 67 589-596). […]

Question: Which DBP concentrations (IV 200 µg loading dose, then 15 µg/day for 10 days) does the source give for `C=C1CC[C@H](O)C/C1=C/C=C1\CCC[C@]2(C)[C@@H]([C@H](C)CCCC(C)(C)O)CC[C@@H]12` [25OHD, 25-hydroxyvitamin D] here?
Answer: unaffected by the treatment

Question: What about the “Molar ratios of 1,25(OH)2D to DBP” value (upon 25OHD supplementation) of the same molecule?
Answer: only transiently rose
